The supplement of paper PMC6078165
± gives the standard deviation of the averaged measurements. The reference is the same well before dosing, and untreated signal decays as well.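 Labels refer to human fibroblasts, largely primary: uterine (C12385, HUF), lung (H6013), bone (Hs27A), adrenal (HADF), skin (WS1), plus mammary HMF and breast cancer-associated Hs343T. Cancer lines are basal-like or mesenchymal-like triple-negative breast cancer. The paper counts as hits responses shifting over 3x the replicate standard deviation. The tissue of the other fibroblasts is not given here.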

Test system: MDAMB436
Assay: relative JC-1 red fluorescence (viability) vs pre-drug, coculture with fibroblast (fraction); higher = more viable cancer cells
Details: 1 µM
Procedure: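 JC-1 labelled TNBC cells cocultured 1:1 (1,500 cells each) with CellTrace Violet stained primary or stromal fibroblasts in 384-well plates in FluoroBrite medium, treated with one of 42 anticancer drugs at 0.1, 1, 10 or 100 uM. JC-1 red fluorescence (mitochondrial integrity in cancer cells only) was read by plate reader every 8 h for 72 h. Values are normalised to each well's pre-drug value. The stock of one drug was tenfold lower, so its dose labels may be too high.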

O=C(O)CCCc1ccc(N(CCCl)CCCl)cc1 [Chlorambucil]
relative JC-1 red fluorescence
Details | 8 h | 16 h | 24 h | 32 h | 40 h | 48 h | 56 h | 64 h | 72 h
coculture fibroblast: C12385 | 0.807 ± 0.015 | 0.691 ± 0.0091 | 0.632 ± 0.0093 | 0.556 ± 0.0077 | 0.497 ± 0.02 | 0.473 ± 0.017 | 0.443 ± 0.024 | 0.425 ± 0.02 | 0.415 ± 0.018
coculture fibroblast: H6013 | 0.823 ± 0.017 | 0.717 ± 0.012 | 0.673 ± 0.0084 | 0.6468 ± 0.0013 | 0.6149 ± 0.0056 | 0.616 ± 0.0062 | 0.5841 ± 0.0042 | 0.57 ± 0.0061 | 0.526 ± 0.0065
coculture fibroblast: H6019 | 0.7416 ± 0.0061 | 0.6317 ± 0.005 | 0.5968 ± 0.0041 | 0.5222 ± 0.0014 | 0.4697 ± 0.0037 | 0.452 ± 0.0086 | 0.43 ± 0.015 | 0.4 ± 0.019 | 0.378 ± 0.0082
coculture fibroblast: H6076 | 0.782 ± 0.022 | 0.661 ± 0.011 | 0.633 ± 0.0096 | 0.599 ± 0.009 | 0.567 ± 0.0089 | 0.542 ± 0.012 | 0.544 ± 0.0087 | 0.5393 ± 0.0039 | 0.5219 ± 0.0029
coculture fibroblast: H6231 | 0.787 ± 0.023 | 0.697 ± 0.032 | 0.668 ± 0.025 | 0.623 ± 0.055 | 0.585 ± 0.054 | 0.555 ± 0.053 | 0.538 ± 0.059 | 0.51 ± 0.059 | 0.49 ± 0.059
coculture fibroblast: HADF | 0.8176 ± 0.0023 | 0.703 ± 0.016 | 0.6477 ± 0.0041 | 0.5961 ± 0.00079 | 0.552 ± 0.0067 | 0.54166 ± 0.00016 | 0.49258 ± 7.1e-07 | 0.476 ± 0.005 | 0.4375 ± 0.00064
coculture fibroblast: HCFa | 0.795 ± 0.01 | 0.708 ± 0.012 | 0.654 ± 0.03 | 0.612 ± 0.026 | 0.57 ± 0.028 | 0.566 ± 0.04 | 0.504 ± 0.039 | 0.486 ± 0.04 | 0.435 ± 0.043
coculture fibroblast: HCPF | 0.861 ± 0.093 | 0.768 ± 0.08 | 0.698 ± 0.053 | 0.642 ± 0.045 | 0.598 ± 0.027 | 0.556 ± 0.021 | 0.518 ± 0.012 | 0.494 ± 0.0083 | 0.467 ± 0.0049
coculture fibroblast: HHSteC | 0.8224 ± 0.0074 | 0.757 ± 0.014 | 0.701 ± 0.032 | 0.667 ± 0.025 | 0.638 ± 0.028 | 0.643 ± 0.024 | 0.585 ± 0.02 | 0.554 ± 0.019 | 0.498 ± 0.0096
coculture fibroblast: HMF | 0.7984 ± 0.0055 | 0.6923 ± 0.0019 | 0.614 ± 0.02 | 0.577 ± 0.015 | 0.533 ± 0.025 | 0.501 ± 0.021 | 0.485 ± 0.015 | 0.47 ± 0.019 | 0.46 ± 0.0093
coculture fibroblast: HPFa | 0.845 ± 0.019 | 0.785 ± 0.021 | 0.734 ± 0.019 | 0.679 ± 0.024 | 0.655 ± 0.016 | 0.652 ± 0.013 | 0.573 ± 0.018 | 0.534 ± 0.0072 | 0.459 ± 0.0091
coculture fibroblast: HUF | 0.823 ± 0.024 | 0.718 ± 0.025 | 0.673 ± 0.025 | 0.589 ± 0.022 | 0.532 ± 0.02 | 0.501 ± 0.018 | 0.476 ± 0.017 | 0.455 ± 0.016 | 0.445 ± 0.007
coculture fibroblast: Hs5 | 0.858 ± 0.014 | 0.779 ± 0.031 | 0.722 ± 0.044 | 0.663 ± 0.049 | 0.617 ± 0.045 | 0.568 ± 0.046 | 0.555 ± 0.053 | 0.518 ± 0.052 | 0.498 ± 0.047
coculture fibroblast: Hs27A | 0.784 ± 0.0018 | 0.705 ± 0.023 | 0.655 ± 0.027 | 0.622 ± 0.045 | 0.587 ± 0.056 | 0.617 ± 0.06 | 0.532 ± 0.067 | 0.508 ± 0.062 | 0.441 ± 0.067
coculture fibroblast: Hs343T | 0.8172 ± 0.0061 | 0.728 ± 0.0087 | 0.677 ± 0.067 | 0.646 ± 0.093 | 0.614 ± 0.12 | 0.587 ± 0.13 | 0.561 ± 0.14 | 0.546 ± 0.14 | 0.532 ± 0.15
coculture fibroblast: WS1 | 0.788 ± 0.034 | 0.686 ± 0.039 | 0.629 ± 0.022 | 0.554 ± 0.027 | 0.497 ± 0.019 | 0.466 ± 0.019 | 0.438 ± 0.016 | 0.4057 ± 0.0034 | 0.394 ± 0.0071
